Earlier results, collected in US20080085892A1, “Liquid dosage form of acetaminophen” (priority 2006, published 2008).

Q: For CC(=O)Nc1ccc(O)cc1 [Acetaminophen, N-(4-hydroxyphenyl)acetamide], which “solubility in water (in words)” value is on record?
A: Its value is “slightly soluble”.
